Laboratory results published in article PMC8754131.
Results are given in words; binding and its absence hold for the method and conditions named. Binding seen in cells or lysates may run through a third protein. Some entries that bind do so weakly or less than the wild type.

Amino acid sequences for entries named in this document (tags omitted). Residues count along the entry.
UniProt P0A7G6: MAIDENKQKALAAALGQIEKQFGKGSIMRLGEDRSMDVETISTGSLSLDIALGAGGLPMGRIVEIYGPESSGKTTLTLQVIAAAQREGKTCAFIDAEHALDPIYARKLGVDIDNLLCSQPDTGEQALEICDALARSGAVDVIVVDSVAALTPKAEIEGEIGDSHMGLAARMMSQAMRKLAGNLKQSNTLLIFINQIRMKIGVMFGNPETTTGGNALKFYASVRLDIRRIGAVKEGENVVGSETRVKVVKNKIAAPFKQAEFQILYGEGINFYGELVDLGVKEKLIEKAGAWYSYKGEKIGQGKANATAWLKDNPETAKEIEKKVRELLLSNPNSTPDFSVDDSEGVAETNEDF
UniProt P59665, residues 65-94: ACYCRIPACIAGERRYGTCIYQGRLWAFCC

Biological target: RecA (E. coli (endogenous in E. coli strain XPX-1)) (UniProt P0A7G6)
Experiment: co-IP; RecA immunoprecipitated with an anti-RecA antibody from XPX-1 proteins collected at different time points after IPTG induction; Western blot with an anti-HNP-1 antibody

- binding: binds
Substance: Human neutrophil peptide-1 (HNP-1) (from UniProt P59665 65-94)
